Experimental data as given in patent publication US6916645B2, “Amylases” (Kao Corporation, priority 1998, dated 2005).
Some entries share one result that the patent states for a list of compounds.

B1: K36: purified liquefying alkaline amylase obtained from strain Bacillus sp. KSM-K36 (FERM BP-6945); SEQ ID NO:2 (protein, listed as Bacillus sp.)
chain: MKRWVVAMLAVLFLFPSVVVADGLNGTMMQYYEWHLENDGQHWNRLHDDAEALSNAGITAIWIPPAYKGNSQADVGYGAYDLYDLGEFNQKGTVRTKYGTKAQLERAIGSLKSNDINVYGDVVMNHKLGADFTEAVQAVQVNPSNRWQDISGVYTIDAWTGFDFPGRNNAYSDFKWRWFHFNGVDWDQRYQENHLFRFANTNWNWRVDEENGNYDYLLGSNIDFSHPEVQEELKDWGSWFTDELDLDGYRLDAIKHIPFWYTSDWVRHQRSEADQDLFVVGEYWKDDVGALEFYLDEMNWEMSLFDVPLNYNFYRASKQGGSYDMRNILRGSLVEAHPIHAVTFVDNHDTQPGESLESWVADWFKPLAYATILTREGGYPNVFYGDYYGIPNDNISAKKDMIDELLDARQNYAYGTQHDYFDHWDIVGWTREGTSSRPNSGLATIMSNGPGGSKWMYVGQQHAGQTWTDLTGNHAASVTINGDGWGEFFTNGGSVSVYVNQ
B2: K38: purified liquefying alkaline amylase obtained from strain Bacillus sp. KSM-K38 (FERM BP-6946); SEQ ID NO:4 (protein, listed as Bacillus sp.)
chain: MRRWVVAMLAVLFLFPSVVVADGLNGTMMQYYEWHLENDGQHWNRLHDDAAALSDAGITAIWIPPAYKGNSQADVGYGAYDLYDLGEFNQKGTVRTKYGTKAQLERAIGSLKSNDINVYGDVVMNHKMGADFTEAVQAVQVNPTNRWQDISGAYTIDAWTGFDFSGRNNAYSDFKWRWFHFNGVDWDQRYQENHIFRFANTNWNWRVDEENGNYDYLLGSNIDFSHPEVQDELKDWGSWFTDELDLDGYRLDAIKHIPFWYTSDWVRHQRNEADQDLFVVGEYWKDDVGALEFYLDEMNWEMSLFDVPLNYNFYRASQQGGSYDMRNILRGSLVEAHPMHAVTFVDNHDTQPGESLESWVADWFKPLAYATILTREGGYPNVFYGDYYGIPNDNISAKKDMIDELLDARQNYAYGTQHDYFDHWDVVGWTREGSSSRPNSGLATIMSNGPGGSKWMYVGRQNAGQTWTDLTGNNGASVTINGDGWGEFFTNGGSVSVYVNQ

Assay: Oxidizing-agent-resisting performance (H2O2, residual activity)
Format: physicochemical
Conditions: 2% H2O2, pH 10, 30° C., 60 minutes; activity before treatment as 100%

Molecule | residual activity after H2O2 treatment
B1 | not less than 94%
B2 | not less than 94%
